Source: patent US6008239A, “Triazole derivative or salt thereof” (SSP Co., Ltd., priority 1997, dated 1999)

System: C. albicans ATCC 44859
Experiment: Antifungal Activity Against Candida albicans (In vitro)
Type: cell-based
Conditions: ATCC44859, MEM + 10% fetal bovine serum, 37° C., 24 hours, CO2 incubator, read-out: Terminal point (minimum medicament concentration permitting apparent suppression of mycerial type growth)
Method: Test 1: Antifungal Activity Against Candida albicans (In vitro)
They were incubated at 37° C. for 24 hours in a CO2 gas incubator. After incubation, a morphological change of C. albicans was observed under an inverted microscope. The minimum medicament concentration permitting the apparent suppression of mycerial type growth compared with that of a medicament-free control was determined as a terminal point (ng/ml).

For OC(Cn1cncn1)(Cn1cncn1)c1ccc(F)cc1F [Fluconazole, reference compound], the MIC was 0.25 µg/mL.
